Some of these results come from one statement about several compounds together.
Experiments:
[1] = tested on: blood coagulation system; assay: effects on blood coagulation system of New Zealand rabbits in vivo (APTT, PT, TT); parameters: species or system New Zealand rabbit
Procedure: Medicaments were administrated via intravenous injection from marginal ear vein, and 1.8 ml blood was harvested from marginal ear veins at the time of before administration (0 min), and 10 min, 30 min, 60 min, 120 min and 240 min after administration, respectively (the time for injecting is 2 min). 3.2% sodium citrate (9:1) was added for anticoagulation and then mixed and centrifuged at 3000 rpm/min for 3 min. The plasma was send to Department of Clinical Laboratory, Southwest Hospital for determining blood coagulation indexes (APTT, TT and PT) with a full automatic coagulation analyzer and the difference before and after administration was obtained by comparison.

[2] = tested on: blood coagulation system; assay: effects on blood coagulation system of New Zealand rabbits in vitro (APTT, PT, TT); assay type: biochemical, New Zealand rabbit; conditions: vs control
Procedure: Medicaments were diluted to the following concentrations for use: TNHH: 3.0 mg/ml; 1.0 mg/ml; 333 μg/ml; bivalrudin: 600 μg/ml; 200 μg/ml; 67 μg/ml; Hirudin: 660 μg/ml; 220 μg/ml; 73 μg/ml.
The blood was sampled from six New Zealand rabbits (10×1.8 ml for each one) from marginal ear vein and added into 10 anticoagulation tubes, respectively. 3.2% sodium citrate (9:1) was added for anticoagulation.
20 μl anticoagulated blood was taken from each tube, followed by the addition of 20 μl above diluted medicaments for each tube. 20 μl physiological saline was added into the control tube. Samples were mixed thoroughly and centrifuged at 3000 rpm/min for 3 min, and plasma was send to Department of Clinical Laboratory, Southwest Hospital for determining blood coagulation indexes (APTT, TT and PT) with a full automatic coagulation analyzer and the difference before and after administration was obtained by comparison.

Substance	extension time of PT ([1]; bivalrudin 1.5 mg/kg i.v., 10 min and 30 min vs 0 min)	extension time of PT ([2]; bivalrudin 2 μg/ml and 0.67 μg/ml)	extension time of PT ([1]; hirudin 0.5 mg/kg i.v., 10 min vs 0 min)	extension time of PT ([2]; hirudin 6.6 μg/ml and 2.2 μg/ml)
Bivalrudin: lyophilized powder for injection, manufactured by Chengdu Jiexun Biotechnical Co., Ltd. [reference compound]	less than 3 seconds	less than 3 seconds		
hirudin [reference compound]			less than 3 seconds	less than 3 seconds
